This is an account of results in the supplement of paper PMC7877785.

± gives the uncertainty stated by the source. The uncertainty is large for many entries.

The nature of this data set: self-splicing fitness, log relative to wild type (ln ratio); higher = more splicing; Tetrahymena group I intron in knt gene, E. coli kanamycin selection, DiMSum; sequences stand for … in CUCUCU…GGAGGGAAAAGUUAUCAGGCAUGCACCUGGUAGCUAGUCUUUAAACCAAUAGAUUGCAUCGGUUUAAAAGGCAAGACCGUCAAAUUGCGGGAAAGGGGUCAACAGCCGUUCAGUACCAAGUCUCAGGGGAAACUUUGAGAUGGCCUUGCAAAGGGUAUGGUAAUAAGCUGACGGACAUGGUCCUAACCACGCAGCCAAGUCCUAAGUCAACAGAUCUUCUGUUGAUAUGGAUGCAGUUCACAGACUAAAUGUCGGUCGGGGAAGAUGUAUUCUUCUCAUAAGAUAUAGUCGGACCUCUCCUUAAUGGGAGCUAGCGGAUGAAGUGAUGCAACACUGGAGCCGCUGGGAACUAAUUUGUAUGCGAAAGUAUAUUGAUUAGUUUUGGAGUACUCGUGGUCG
Put shortly: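 Colonies from six replicate transformations of E. coli BL21(DE3) were pooled and amplicon-sequenced on an Illumina HiSeq 2500. The library placed an intron with all eight P1ex-region nucleotides randomised inside the knt kanamycin-resistance gene on pET-22b(+), and cells grew overnight at 37°C or 30°C on LB agar with or without 25 μg/mL kanamycin (plus 100 μg/mL carbenicillin, 50 μM IPTG, 0.2% rhamnose). Fitness is the DiMSum error-weighted combination of wild-type-normalised replicate fold changes, kanamycin versus none.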

For the sequence AGAGAGCAAUAUUACGCAAC, the “self-splicing fitness (ln)” value (30 °C) is -3.73 ± 0.53.

As for UUUGAGCAAUAUUACGAACG, where the note is “30 °C”, the “self-splicing fitness (ln)” value was -2.81 ± 0.76.

As for AGAGAGCAAUAUUACGGAGG, the “self-splicing fitness (ln)” value runs as follows: (30 °C) -3.9 ± 0.74; (37 °C) -2.55 ± 0.76.

For the sequence CGUGAGCAAUAUUACGCGUC, the “self-splicing fitness (ln)” value (37 °C) was -3.01 ± 1.

Take AUAGAGCAAUAUUACGUAAC: the “self-splicing fitness (ln)” value (37 °C) is -1.39 ± 0.72.

For the sequence GGUAAGCAAUAUUACGCUGC, the “self-splicing fitness (ln)” value was -2.94 ± 0.2 (30 °C) and -3.31 ± 0.52 (37 °C).

As for UCAAAGCAAUAUUACGAAUC, the “self-splicing fitness (ln)” value (30 °C) was -4.56 ± 0.72.

Consider UUUUAGCAAUAUUACGGUGU, for which the “self-splicing fitness (ln)” value (37 °C) is -2.05 ± 0.5.

As for AGCGAGCAAUAUUACGCCGU, the “self-splicing fitness (ln)” value runs as follows: (30 °C) -3.88 ± 1.1; (37 °C) -1.24 ± 0.34.

GUCGAGCAAUAUUACGCUCG: where the note is “37 °C”, the “self-splicing fitness (ln)” value was -2.41 ± 0.63.

As for CUGGAGCAAUAUUACGCACC, the “self-splicing fitness (ln)” value was -2.71 ± 0.65 (30 °C) and -0.961 ± 0.69 (37 °C).

As for GUAUAGCAAUAUUACGGCCC, for the setting “30 °C”, the “self-splicing fitness (ln)” value was -0.402 ± 0.67.

As to CCAGAGCAAUAUUACGUACC, the “self-splicing fitness (ln)” value (30 °C) was -3.62 ± 0.59.

As to UAUAAGCAAUAUUACGACCC, the “self-splicing fitness (ln)” value reads like this: (30 °C) -3.7 ± 1.1; (37 °C) -1.58 ± 0.59.

Take GCGUAGCAAUAUUACGACCC: the “self-splicing fitness (ln)” value (30 °C) is -1.55 ± 1.2 and the “self-splicing fitness (ln)” value (37 °C) was determined as 1.3 ± 1.1.

For the sequence GGGGAGCAAUAUUACGUAUU, the “self-splicing fitness (ln)” value (30 °C) is -4.3 ± 0.59.

With CUUAAGCAAUAUUACGCCUC, the “self-splicing fitness (ln)” value (37 °C) is -1.6 ± 0.69.

Turning to GGUGAGCAAUAUUACGAUUA, for the setting “30 °C”, the “self-splicing fitness (ln)” value was -0.962 ± 0.83.

For the sequence UUUUAGCAAUAUUACGCAGC, the “self-splicing fitness (ln)” value (30 °C) was -2.45 ± 0.78 and the “self-splicing fitness (ln)” value (37 °C) was -3.53 ± 1.

In the case of UUGCAGCAAUAUUACGAACC, the “self-splicing fitness (ln)” value (37 °C) is -1.88 ± 1.2.

In the case of CGUAAGCAAUAUUACGCUUC, the “self-splicing fitness (ln)” value (30 °C) was -4.29 ± 1.

As for AUAGAGCAAUAUUACGCAGC, the “self-splicing fitness (ln)” value is -2.33 ± 0.45 (30 °C) and -2.01 ± 0.56 (37 °C).

Take CAUGAGCAAUAUUACGCGAA: the “self-splicing fitness (ln)” value (30 °C) is -3.03 ± 0.17 and the “self-splicing fitness (ln)” value (37 °C) is -1.57 ± 0.15.

For the sequence UUUAAGCAAUAUUACGCUAG, the “self-splicing fitness (ln)” value (30 °C) was -1.54 ± 0.15 and the “self-splicing fitness (ln)” value (37 °C) was -0.671 ± 0.2.

For GAUUAGCAAUAUUACGGGUG, the “self-splicing fitness (ln)” value runs as follows: (30 °C) -1.52 ± 0.097; (37 °C) -0.58 ± 0.12.

Consider CGAGAGCAAUAUUACGAGAA, for which the “self-splicing fitness (ln)” value (30 °C) was -2.18 ± 0.84.

As for GAGUAGCAAUAUUACGCUCU, the “self-splicing fitness (ln)” value (30 °C) was -3.76 ± 0.52 and the “self-splicing fitness (ln)” value (37 °C) is -2.43 ± 0.55.

As for AGACAGCAAUAUUACGUUCA, the “self-splicing fitness (ln)” value was -0.336 ± 0.056 (30 °C) and -0.159 ± 0.086 (37 °C).

Regarding UAGUAGCAAUAUUACGGUUC, the “self-splicing fitness (ln)” value runs as follows: (30 °C) -3.63 ± 0.59; (37 °C) -2.04 ± 0.56.

Consider CCGCAGCAAUAUUACGAGAC, for which the “self-splicing fitness (ln)” value (37 °C) was -1.89 ± 0.51.

Consider CACGAGCAAUAUUACGCAGC, for which the “self-splicing fitness (ln)” value by setting is: (30 °C) -3.73 ± 0.59; (37 °C) -1.29 ± 0.35.

Regarding GAUUAGCAAUAUUACGCCAC, the “self-splicing fitness (ln)” value is -3.71 ± 0.59 (30 °C) and -1.1 ± 0.66 (37 °C).

In the case of UCCAAGCAAUAUUACGAGAC, the “self-splicing fitness (ln)” value (30 °C) is -4.46 ± 1.

Consider GUUGAGCAAUAUUACGUCCC, for which the “self-splicing fitness (ln)” value (37 °C) is -0.693 ± 1.4.

AAAGAGCAAUAUUACGUGGC: for the setting “37 °C”, the “self-splicing fitness (ln)” value is -1.84 ± 0.52.

As to UGUGAGCAAUAUUACGCGGG, the “self-splicing fitness (ln)” value (30 °C) is -3.65 ± 0.52.

For the sequence UACGAGCAAUAUUACGAUCC, the “self-splicing fitness (ln)” value (37 °C) is -1.79 ± 0.59.

As for AUUUAGCAAUAUUACGAUGG, the “self-splicing fitness (ln)” value (37 °C) was -2.66 ± 0.62.

Turning to CUUUAGCAAUAUUACGUUUC, the “self-splicing fitness (ln)” value (30 °C) was -5.38 ± 0.51.

With CGAUAGCAAUAUUACGAUGU, the “self-splicing fitness (ln)” value runs as follows: (30 °C) -0.22 ± 0.14; (37 °C) -0.614 ± 0.16.

For GUUUAGCAAUAUUACGAGUC, the “self-splicing fitness (ln)” value (30 °C) was -3.71 ± 0.6.

In the case of CUAAAGCAAUAUUACGCACC, the “self-splicing fitness (ln)” value is, setting by setting: (30 °C) -2.19 ± 0.58; (37 °C) -2.39 ± 1.1.

With CCUUAGCAAUAUUACGGACC, the “self-splicing fitness (ln)” value is, setting by setting: (30 °C) -2.33 ± 0.3; (37 °C) -1.69 ± 0.64.

UAGGAGCAAUAUUACGGGGA: the “self-splicing fitness (ln)” value (30 °C) is -4.18 ± 0.74 and the “self-splicing fitness (ln)” value (37 °C) was -0.969 ± 0.77.

With UCGGAGCAAUAUUACGGCCC, the “self-splicing fitness (ln)” value (30 °C) was -2.75 ± 0.53.

Consider CUGUAGCAAUAUUACGACAC, for which the “self-splicing fitness (ln)” value (30 °C) was -4.36 ± 0.51.

As to UGUUAGCAAUAUUACGGAGG, the “self-splicing fitness (ln)” value (37 °C) was -2.17 ± 0.56.

For CCUUAGCAAUAUUACGCUGA, the “self-splicing fitness (ln)” value (37 °C) was -3.06 ± 0.53.
